We go through 1 substance from PMC7340540, “Crystal structures and calorimetry reveal catalytically relevant binding mode of coproporphyrin and coproheme in coproporphyrin ferrochelatase” (The FEBS journal, 2019).

Amino acid sequences for entries named in this document (tags omitted).
UniProt Q8Y565: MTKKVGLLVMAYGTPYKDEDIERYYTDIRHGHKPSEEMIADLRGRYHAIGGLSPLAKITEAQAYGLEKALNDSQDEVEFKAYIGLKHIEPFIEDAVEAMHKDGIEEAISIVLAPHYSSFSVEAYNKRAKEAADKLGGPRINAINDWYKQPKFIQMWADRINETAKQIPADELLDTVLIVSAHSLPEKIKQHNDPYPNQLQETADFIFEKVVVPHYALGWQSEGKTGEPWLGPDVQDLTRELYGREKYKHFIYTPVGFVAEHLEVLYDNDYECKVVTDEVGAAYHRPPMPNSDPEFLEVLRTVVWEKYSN

Results are given in words; binding and its absence hold for the method and conditions named.

The target of the assay is coproporphyrin ferrochelatase from Listeria monocytogenes (LmCpfC) (Listeria monocytogenes) (UniProt Q8Y565). In words: SEC-MALS; HPLC-SEC-MALS, Superdex 200 10/300 GL, 1 x PBS plus 200 mM NaCl, flow 0.75 mL/min, 50 μg protein injected; apo-, coproporphyrin III- and coproheme-LmCpfC gave identical elution profiles; both purified. For orientation: In gel filtration, larger molecules generally elute earlier.

“coproporphyrin ferrochelatase from Listeria monocytogenes (LmCpfC) (from UniProt Q8Y565 1-309) (enzyme)”: the binding result was “no binding (tested: 50 μg injected)”.
